Results from patent US20250120981A1, “MRTX1133 PHARMACEUTICAL COMPOSITIONS” (MIRATI THERAPEUTICS, INC., priority 2023, published 2025).
Several values for one entry are separate records, joined by “and”; a condition that tells them apart may be missing. Identical values can stand only once. Further values from the same series stand in other lists.

Assay: Pharmacokinetics in humans, MRTX1133 formulation, oral, single and multiple doses
Format: in vivo
Method: The pharmacokinetics [PK] of the MRTX1133 formulation after oral administration has been evaluated in 25 subjects across 3 escalating dose frequencies under fasting conditions (200 mg twice daily [BID], 400 mg BID, and 800 mg BID), as well as evaluation of 400 mg BID when administered with a low-fat meal (i.e., under fed conditions). The mean (+standard deviation) single-dose and multiple-dose pharmacokinetic profiles of the evaluated doses are presented in FIG. 9 and FIG. 10, respectively. Individual single- and multiple-dose PK profiles can be found in FIG. 11. For all figures, the X-axis represents nominal time of sample collection (hours [h]) and the Y-axis represents plasma concentration (ng/mL). Table 10 lists PK data following the oral administration of a single dose and multiple doses of MRTX1133 formulation by dose level and subject.

C#Cc1c(F)ccc2cc(O)cc(-c3ncc4c(N5C[C@H]6CC[C@@H](C5)N6)nc(OC[C@@]56CCCN5C[C@H](F)C6)nc4c3F)c12 [MRTX1133, 4-(4-((1R,5S)-3,8-diazabicyclo[3.2.1]octan-3-yl)-8-fluoro-2-(((2R,7aS)-2-fluorohexahydro-1Hpyrrolizin-7a-yl)methoxy)pyrido[4,3-d]pyrimidin-7-yl)-5-ethynyl-6-fluoronaphthalen-2-ol]
Plasma concentration (multiple oral doses of 200 mg BID, fasted, 0 h, individual subjects): 1.63 ng/mL and 5.45 ng/mL and 0.632 ng/mL and 2.26 ng/mL and 16.7 ng/mL | Plasma concentration (multiple oral doses of 200 mg BID, fasted, 0.5 h, individual subjects): 57.5 ng/mL and 5.15 ng/mL and 49.4 ng/mL and 13.1 ng/mL and 15.3 ng/mL | Plasma concentration (multiple oral doses of 200 mg BID, fasted, 1 h, individual subjects): 85.0 ng/mL and 12.6 ng/mL and 8.00 ng/mL and 34.7 ng/mL and 15.2 ng/mL | Plasma concentration (multiple oral doses of 200 mg BID, fasted, 1.5 h, individual subjects): 55.0 ng/mL and 15.0 ng/mL and 4.08 ng/mL and 56.2 ng/mL and 17.1 ng/mL | Plasma concentration (multiple oral doses of 200 mg BID, fasted, 2 h, individual subjects): 29.9 ng/mL and 7.52 ng/mL and 4.43 ng/mL and 35.7 ng/mL and 15.6 ng/mL | Plasma concentration (multiple oral doses of 200 mg BID, fasted, 4 h, individual subjects): 12.3 ng/mL and 5.95 ng/mL and 1.64 ng/mL and 5.01 ng/mL | Plasma concentration (multiple oral doses of 200 mg BID, fasted, 6 h, individual subjects): 5.03 ng/mL and 4.63 ng/mL and 1.14 ng/mL and 3.28 ng/mL | Plasma concentration (multiple oral doses of 200 mg BID, fasted, 8 h, individual subjects): 3.22 ng/mL and 4.13 ng/mL and 0.878 ng/mL and 2.44 ng/mL | Plasma concentration (multiple oral doses of 200 mg BID, fasted, 12 h, individual subjects): 2.72 ng/mL and 5.45 ng/mL and 0.928 ng/mL and 2.08 ng/mL | Plasma concentration (multiple oral doses of 400 mg BID with a low-fat meal, 0 h, individual subjects): 53.8 ng/mL and 2.95 ng/mL and 4.53 ng/mL and 5.39 ng/mL | Plasma concentration (multiple oral doses of 400 mg BID with a low-fat meal, 1 h, individual subjects): 390 ng/mL and 90.3 ng/mL and 48.2 ng/mL and 23.0 ng/mL | Plasma concentration (multiple oral doses of 400 mg BID with a low-fat meal, 2 h, individual subjects): 203 ng/mL and 27.3 ng/mL and 17.9 ng/mL and 18.5 ng/mL | Plasma concentration (multiple oral doses of 400 mg BID with a low-fat meal, 3 h, individual subjects): 170 ng/mL and 24.8 ng/mL and 9.11 ng/mL and 16.6 ng/mL | Plasma concentration (multiple oral doses of 400 mg BID with a low-fat meal, 4 h, individual subjects): 129 ng/mL and 250 ng/mL and 6.60 ng/mL and 14.7 ng/mL | Plasma concentration (multiple oral doses of 400 mg BID with a low-fat meal, 5 h, individual subjects): 106 ng/mL and 39.4 ng/mL and 5.09 ng/mL and 8.57 ng/mL | Plasma concentration (multiple oral doses of 400 mg BID with a low-fat meal, 6 h, individual subjects): 89.4 ng/mL and 18.8 ng/mL and 4.07 ng/mL and 7.64 ng/mL | Plasma concentration (multiple oral doses of 400 mg BID with a low-fat meal, 8 h, individual subjects): 73.2 ng/mL and 8.47 ng/mL and 3.12 ng/mL and 7.05 ng/mL | Plasma concentration (multiple oral doses of 400 mg BID with a low-fat meal, 12 h, individual subjects): 55.3 ng/mL and 5.28 ng/mL and 2.90 ng/mL and 5.71 ng/mL | Plasma concentration (multiple oral doses of 400 mg BID, fasted, 0 h, individual subjects): 57.3 ng/mL and 0.579 ng/mL and 33.1 ng/mL and 9.12 ng/mL and 4.7 ng/mL and 9.83 ng/mL and 21.3 ng/mL | Plasma concentration (multiple oral doses of 800 mg BID, fasted, 0 h, individual subjects 1-8): 2.55 ng/mL and 19.3 ng/mL and 2.01 ng/mL and 12 ng/mL and 10.6 ng/mL and 36.5 ng/mL and 78.1 ng/mL and 3.63 ng/mL | Plasma concentration (multiple oral doses of 800 mg BID, fasted, 0.5 h, individual subjects 1-8): 7.77 ng/mL and 241 ng/mL (2×) and 34.4 ng/mL and 131 ng/mL and 11.2 ng/mL and 38.8 ng/mL and 72.6 ng/mL | Plasma concentration (multiple oral doses of 800 mg BID, fasted, 1 h, individual subjects 1-8): 9.9 ng/mL and 149 ng/mL and 25.9 ng/mL and 136 ng/mL and 12.9 ng/mL and 47.4 ng/mL and 670 ng/mL and 44.1 ng/mL | Plasma concentration (multiple oral doses of 800 mg BID, fasted, 1.5 h, individual subjects 1-8): 10.7 ng/mL and 80.9 ng/mL and 24.5 ng/mL and 143 ng/mL and 23.5 ng/mL and 45.1 ng/mL and 483 ng/mL and 44.3 ng/mL | Plasma concentration (multiple oral doses of 800 mg BID, fasted, 2 h, individual subjects 1-8): 8.1 ng/mL and 84.2 ng/mL and 30.8 ng/mL and 165 ng/mL and 29.8 ng/mL and 83.3 ng/mL and 531 ng/mL and 41 ng/mL | Plasma concentration (multiple oral doses of 800 mg BID, fasted, 4 h, individual subjects 1-8): 19.9 ng/mL and 26.3 ng/mL and 13.4 ng/mL and 67.4 ng/mL and 22.5 ng/mL and 105 ng/mL and 812 ng/mL and 35.9 ng/mL | Plasma concentration (multiple oral doses of 800 mg BID, fasted, 6 h, individual subjects 1-8): 38.2 ng/mL and 18.9 ng/mL and 4.94 ng/mL and 51.2 ng/mL and 26.1 ng/mL and 89.7 ng/mL and 609 ng/mL and 14.1 ng/mL | Plasma concentration (multiple oral doses of 800 mg BID, fasted, 8 h, individual subjects 1-8): 22.7 ng/mL and 18.1 ng/mL and 3.5 ng/mL and 30.1 ng/mL and 21.6 ng/mL and 57 ng/mL and 288 ng/mL and 8.66 ng/mL | Plasma concentration (multiple oral doses of 800 mg BID, fasted, 12 h, individual subjects 1-8): 11.1 ng/mL and 16.8 ng/mL and 2.59 ng/mL and 12.1 ng/mL and 12.4 ng/mL and 42.7 ng/mL and 5.14 ng/mL | Plasma concentration (single oral dose of 200 mg, fasted, 0.5 h, individual subjects): 12.0 ng/mL and 7.61 ng/mL and 8.20 ng/mL and 27.8 ng/mL | Plasma concentration (single oral dose of 200 mg, fasted, 4 h, individual subjects): 7.45 ng/mL and 21.0 ng/mL and 4.79 ng/mL and 4.8 ng/mL and 114 ng/mL | Plasma concentration (single oral dose of 200 mg, fasted, 6 h, individual subjects): 3.04 ng/mL and 8.00 ng/mL and 1.60 ng/mL and 1.82 ng/mL and 44.8 ng/mL | Plasma concentration (single oral dose of 200 mg, fasted, 8 h, individual subjects): 2.37 ng/mL and 4.77 ng/mL and 0.954 ng/mL and 1.22 ng/mL and 23.6 ng/mL | Plasma concentration (single oral dose of 200 mg, fasted, 12 h, individual subjects): 1.73 ng/mL and 2.86 ng/mL and 0.678 ng/mL and 0.912 ng/mL and 16.0 ng/mL | Plasma concentration (single oral dose of 200 mg, fasted, 24 h, individual subjects): 0.521 ng/mL and 1.08^a ng/mL | Plasma concentration (single oral dose of 400 mg with a low-fat meal, 8 h, individual subjects): 36.2 ng/mL and 6.62 ng/mL and 0.538 ng/mL and 48.8 ng/mL and 9.72 ng/mL | Plasma concentration (single oral dose of 400 mg with a low-fat meal, 12 h, individual subjects): 17.5 ng/mL and 3.17 ng/mL and 30.4 ng/mL and 5.32 ng/mL | Plasma concentration (single oral dose of 400 mg, fasted, 0.5 h, individual subjects): 51.4 ng/mL and 66.3 ng/mL and 71 ng/mL and 15.2 ng/mL and 51.5 ng/mL and 43.7 ng/mL | Plasma concentration (single oral dose of 400 mg, fasted, 1 h, individual subjects): 39.5 ng/mL and 62 ng/mL and 39.8 ng/mL and 38.2 ng/mL and 15.2 ng/mL and 71.7 ng/mL and 99.1 ng/mL | Plasma concentration (single oral dose of 400 mg, fasted, 1.5 h, individual subjects): 57.4 ng/mL and 9.42 ng/mL and 22.3 ng/mL and 49.5 ng/mL and 7.59 ng/mL and 69.1 ng/mL and 127 ng/mL | Plasma concentration (single oral dose of 400 mg, fasted, 2 h, individual subjects): 62.1 ng/mL and 11 ng/mL and 17.6 ng/mL and 30.8 ng/mL and 5.83 ng/mL and 268 ng/mL and 188 ng/mL | Plasma concentration (single oral dose of 400 mg, fasted, 4 h, individual subjects): 54.3 ng/mL and 6.83 ng/mL and 9.91 ng/mL and 7.09 ng/mL and 37 ng/mL and 281 ng/mL and 54.8 ng/mL | Plasma concentration (single oral dose of 400 mg, fasted, 6 h, individual subjects): 39.9 ng/mL and 2.9 ng/mL and 4.98 ng/mL and 5.22 ng/mL and 6.99 ng/mL and 158 ng/mL and 23.8 ng/mL | Plasma concentration (single oral dose of 400 mg, fasted, 8 h, individual subjects): 23 ng/mL and 0.923 ng/mL and 3.27 ng/mL and 3.59 ng/mL and 2.91 ng/mL and 106 ng/mL and 21.2 ng/mL | Plasma concentration (single oral dose of 400 mg, fasted, 12 h, individual subjects): 15.1 ng/mL and 1.05 ng/mL and 2.16 ng/mL and 2.43 ng/mL and 1.79 ng/mL and 49.2 ng/mL and 11.4 ng/mL | Plasma concentration (single oral dose of 800 mg, fasted, 0.5 h, individual subjects): 77.9 ng/mL and 1530 ng/mL and 101 ng/mL and 55.3 ng/mL and 14.9 ng/mL and 13.1 ng/mL and 78.5 ng/mL and 11.2 ng/mL | Plasma concentration (single oral dose of 800 mg, fasted, 1 h, individual subjects): 129 ng/mL and 1760 ng/mL and 79.9 ng/mL and 64.3 ng/mL and 23.4 ng/mL and 11.4 ng/mL and 205 ng/mL and 15.4 ng/mL | Plasma concentration (single oral dose of 800 mg, fasted, 1.5 h, individual subjects): 108 ng/mL and 489 ng/mL and 74.2 ng/mL and 48.9 ng/mL and 13.8 ng/mL and 24 ng/mL and 437 ng/mL and 16.2 ng/mL | Plasma concentration (single oral dose of 800 mg, fasted, 2 h, individual subjects): 78.2 ng/mL and 328 ng/mL and 29.3 ng/mL and 27.7 ng/mL and 11.2 ng/mL and 80.5 ng/mL and 374 ng/mL and 8.36 ng/mL | Plasma concentration (single oral dose of 800 mg, fasted, 4 h, individual subjects): 14.7 ng/mL and 108 ng/mL and 6.77 ng/mL and 8.95 ng/mL and 24 ng/mL and 69.2 ng/mL and 302 ng/mL and 6.89 ng/mL | Plasma concentration (single oral dose of 800 mg, fasted, 6 h, individual subjects): 4.95 ng/mL and 37.3 ng/mL and 3.2 ng/mL and 8.44 ng/mL and 8.62 ng/mL and 62.5 ng/mL and 329 ng/mL and 8.79 ng/mL | Plasma concentration (single oral dose of 800 mg, fasted, 8 h, individual subjects): 2.73 ng/mL and 26 ng/mL and 1.12 ng/mL and 4.28 ng/mL and 10.1 ng/mL and 53.2 ng/mL and 266 ng/mL and 33.8 ng/mL | Plasma concentration (single oral dose of 800 mg, fasted, 12 h, individual subjects): 2.06 ng/mL and 14.4 ng/mL and 1.22 ng/mL and 2.51 ng/mL and 2.1 ng/mL and 22.3 ng/mL and 43.3 ng/mL | Plasma concentration (single oral dose of 800 mg, fasted, 24 h, individual subjects): 0.894 ng/mL and 50.2 ng/mL
